Taken from: PubChem BioAssay AID1224829 (NIAID, 2016)
Aim: 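Secondary check of hits that alter LPS-induced p65 translocation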 (follow-up of hits). System: mouse RAW264.7 G9 macrophage reporter cells. Reagents: single siRNA against mouse genes, 100 nM. Duration: 2 days of siRNA knock-down, then 40 min of LPS before fixing. Challenge: LPS (Salmonella minnesota R595) at 10 ng/ml. Measured: 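High-content images after 40 min LPS exposure; GFP-p65 nucleus to surrounding ring signal ratio, normalised to plate median and non-targeting control wells, expressed as z-score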. Direction: p65 translocation z-score: higher = more nuclear NF-kappaB p65 after LPS. Call rule: 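An siRNA is called active when the mean z-score of its two replicates is above 2 or below -2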. Calls: active = changed p65 translocation (either direction); inactive = no clear change.
Shown is a random part of about 3,800 deposited reagents. 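Calls cover raised and lowered translocation; gene median uses one vendor's three siRNAs; qiagen siRNAs acted more weakly than ambion siRNAs.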 The numbers tell different reagents against one gene apart. Not all columns of the deposit are shown.

"p65 translocation z-score, replicate mean","p65 translocation z-score, replicate 1","p65 translocation z-score, replicate 2",call,target,reagent,siRNA vendor or control pool
-1.37,-1.74,-0.995,inactive,Cimip2b (ciliary microtubule inner protein 2B),1,ambion single siRNA
-1.02,-0.476,-1.56,inactive,Cimip2b (ciliary microtubule inner protein 2B),2,ambion single siRNA
-5.37,-4.63,-6.12,active,Cimip2b (ciliary microtubule inner protein 2B),3,ambion single siRNA
1.07,0.968,1.18,inactive,Cimip2b (ciliary microtubule inner protein 2B),4,qiagen single siRNA
-4.49,-5.15,-3.84,active,Cimip2b (ciliary microtubule inner protein 2B),5,qiagen single siRNA
-0.147,-0.42,0.126,inactive,Cimip2b (ciliary microtubule inner protein 2B),6,qiagen single siRNA
1.29,1.68,0.892,inactive,Slc25a4,1,qiagen single siRNA
1.32,1.19,1.44,inactive,Slc25a4,2,qiagen single siRNA
1.92,2.44,1.41,inactive,Slc25a4,3,qiagen single siRNA
1.92,1.02,2.83,inactive,Prelid3a (PRELI domain containing 3A),1,ambion single siRNA
1.22,0.782,1.66,inactive,Prelid3a (PRELI domain containing 3A),2,ambion single siRNA
-3.18,-3.52,-2.83,active,Prelid3a (PRELI domain containing 3A),3,ambion single siRNA
0.477,-0.86,1.81,inactive,Prelid3a (PRELI domain containing 3A),4,qiagen single siRNA
0.803,0.199,1.41,inactive,Prelid3a (PRELI domain containing 3A),5,qiagen single siRNA
-2.24,-2.24,,active,Prelid3a (PRELI domain containing 3A),6,qiagen single siRNA
1.62,1.99,1.25,inactive,Pakap (paralemmin A kinase anchor protein),1,ambion single siRNA
-2.25,-2.47,-2.03,active,Pakap (paralemmin A kinase anchor protein),2,ambion single siRNA
1.35,2.97,-0.265,inactive,Pakap (paralemmin A kinase anchor protein),3,ambion single siRNA
-1.02,-1.24,-0.813,inactive,Pakap (paralemmin A kinase anchor protein),4,qiagen single siRNA
3.34,2.06,4.62,active,Pakap (paralemmin A kinase anchor protein),5,qiagen single siRNA
-1.6,-1.55,-1.66,inactive,Pakap (paralemmin A kinase anchor protein),6,qiagen single siRNA

Already shown: 5 of the entries above.
"p65 translocation z-score, replicate mean","p65 translocation z-score, replicate 1","p65 translocation z-score, replicate 2",call,target,reagent,siRNA vendor or control pool
-3.18,-3.52,-2.83,active,Prelid3a (PRELI domain containing 3A),3,ambion single siRNA
0.477,-0.86,1.81,inactive,Prelid3a (PRELI domain containing 3A),4,qiagen single siRNA
0.803,0.199,1.41,inactive,Prelid3a (PRELI domain containing 3A),5,qiagen single siRNA
-2.24,-2.24,,active,Prelid3a (PRELI domain containing 3A),6,qiagen single siRNA
1.62,1.99,1.25,inactive,Pakap (paralemmin A kinase anchor protein),1,ambion single siRNA

Further entries:
"p65 translocation z-score, replicate mean","p65 translocation z-score, replicate 1","p65 translocation z-score, replicate 2",call,target,reagent,siRNA vendor or control pool
-0.67,-1.13,-0.21,inactive,9230109A22Rik (RIKEN cDNA 9230109A22 gene),1,ambion single siRNA
-0.0288,-0.641,0.583,inactive,9230109A22Rik (RIKEN cDNA 9230109A22 gene),2,ambion single siRNA
0.152,1.19,-0.889,inactive,9230109A22Rik (RIKEN cDNA 9230109A22 gene),3,ambion single siRNA
-0.338,-0.402,-0.273,inactive,9230109A22Rik (RIKEN cDNA 9230109A22 gene),4,qiagen single siRNA
2.04,0.906,3.17,active,9230109A22Rik (RIKEN cDNA 9230109A22 gene),5,qiagen single siRNA
1.25,1.7,0.8,inactive,9230109A22Rik (RIKEN cDNA 9230109A22 gene),6,qiagen single siRNA
-1.33,-0.885,-1.77,inactive,Sdk1 (sidekick cell adhesion molecule 1),1,ambion single siRNA
-3.64,-3.11,-4.18,active,Sdk1 (sidekick cell adhesion molecule 1),2,ambion single siRNA
-2.32,-2.6,-2.03,active,Sdk1 (sidekick cell adhesion molecule 1),3,ambion single siRNA
-1.46,-0.766,-2.16,inactive,Sdk1 (sidekick cell adhesion molecule 1),4,qiagen single siRNA
-6.22,-6.22,,active,Sdk1 (sidekick cell adhesion molecule 1),5,qiagen single siRNA
-4.41,-3.26,-5.56,active,Sdk1 (sidekick cell adhesion molecule 1),6,qiagen single siRNA
0.835,1.76,-0.0916,inactive,Sytl5 (synaptotagmin-like 5),1,ambion single siRNA
-0.8,-0.111,-1.49,inactive,Sytl5 (synaptotagmin-like 5),2,ambion single siRNA
-4,-4.26,-3.74,active,Sytl5 (synaptotagmin-like 5),3,ambion single siRNA
1.79,0.484,3.1,inactive,Sytl5 (synaptotagmin-like 5),4,qiagen single siRNA
-0.968,-1.83,-0.105,inactive,Sytl5 (synaptotagmin-like 5),5,qiagen single siRNA
0.906,-0.318,2.13,inactive,Sytl5 (synaptotagmin-like 5),6,qiagen single siRNA
